Measurements reported in PubChem BioAssay AID1224830 (NIAID, 2016).

Aim: 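Genes whose knock-down alters the TNF-alpha reporter response to LPS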 (primary screen)
System: human THP-1 monocytic leukaemia cells, TNF dual-luciferase reporter clone, PMA-differentiated to macrophage-like cells
Reagent: siRNA pool against human genes, 50 nM
Time to read-out: LPS for 4 h, given about 3 days after siRNA transfection
Treatment: bacterial LPS (TLR4 ligand), 10 ng/ml
Measurement: 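Ratio of firefly to renilla light, scaled to the plate median and expressed as a robust z-score per replicate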
Direction: TNF reporter robust z-score: higher = stronger TNF reporter response to LPS
Call rule: 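a well is active when its z-score exceeds 2.8 or falls below -1.5; control wells carry no call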
Shown is a random part of about 18,000 reagents tested. Over the whole deposit, about 2,900 (16%) were called active. 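Calls are made per well; low scores hint the gene aids the LPS response, high scores that it dampens it.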 Repeated entries: four replicate wells of each siRNA pool. No sequences are given here.

Target gene | TNF reporter robust z-score | Call
TRIP12 | 0.68 | inactive
TRIP12 | 0.37 | inactive
TRIP12 | -0.5 | inactive
TRIP12 | 0.33 | inactive
PIGZ | -0.63 | inactive
PIGZ | -0.92 | inactive
PIGZ | -0.87 | inactive
PIGZ | -1.19 | inactive
DELEC1 | 0.63 | inactive
DELEC1 | 0 | inactive
DELEC1 | 0.88 | inactive
DELEC1 | 0.36 | inactive
OR10H2 | 0.42 | inactive
OR10H2 | 0.4 | inactive
OR10H2 | -0.99 | inactive
OR10H2 | -0.49 | inactive
DCAKD | -0.71 | inactive
DCAKD | -0.36 | inactive
DCAKD | -1.1 | inactive
DCAKD | -0.98 | inactive
AP3M2 | -1.3 | inactive
AP3M2 | -0.87 | inactive
AP3M2 | -0.96 | inactive
AP3M2 | -0.64 | inactive
DRC10 | 0.04 | inactive
DRC10 | 0.11 | inactive
DRC10 | 0.65 | inactive
DRC10 | -0.12 | inactive
CDC42SE2 | -0.91 | inactive
CDC42SE2 | -0.59 | inactive
CDC42SE2 | -0.41 | inactive
CDC42SE2 | -0.77 | inactive
PLCH2 | -0.2 | inactive
PLCH2 | 0.58 | inactive
PLCH2 | 0.52 | inactive
PLCH2 | 0.53 | inactive
GHR | -0.88 | inactive
GHR | 0.22 | inactive
GHR | 0.86 | inactive
GHR | 2.48 | inactive
HRAS | 11.5 | active
HRAS | 0.27 | inactive
HRAS | 0.5 | inactive
HRAS | 0.33 | inactive
C1QL1 | 0.26 | inactive
C1QL1 | 0.4 | inactive
C1QL1 | 0.19 | inactive
C1QL1 | -0.31 | inactive
ANO3 | -0.37 | inactive
ANO3 | -1.06 | inactive
ANO3 | -0.27 | inactive
ANO3 | -0.67 | inactive
DSG1 | 1.85 | inactive
DSG1 | 1.67 | inactive
DSG1 | 1.54 | inactive
DSG1 | 2.71 | inactive
DHX32 | 1.96 | inactive
DHX32 | 2.22 | inactive
DHX32 | 1.59 | inactive
DHX32 | 1.93 | inactive
PPY | 0.45 | inactive
PPY | 0.4 | inactive
PPY | 1.3 | inactive
PPY | 2.21 | inactive

The list goes on, starting with the last 16 of the part before.
Target gene | TNF reporter robust z-score | Call
ANO3 | -0.37 | inactive
ANO3 | -1.06 | inactive
ANO3 | -0.27 | inactive
ANO3 | -0.67 | inactive
DSG1 | 1.85 | inactive
DSG1 | 1.67 | inactive
DSG1 | 1.54 | inactive
DSG1 | 2.71 | inactive
DHX32 | 1.96 | inactive
DHX32 | 2.22 | inactive
DHX32 | 1.59 | inactive
DHX32 | 1.93 | inactive
PPY | 0.45 | inactive
PPY | 0.4 | inactive
PPY | 1.3 | inactive
PPY | 2.21 | inactive
SQLE | -0.19 | inactive
SQLE | 0.01 | inactive
SQLE | -0.58 | inactive
SQLE | -0.24 | inactive
ZNF264 | 1.46 | inactive
ZNF264 | -0.33 | inactive
ZNF264 | -0.43 | inactive
ZNF264 | 0.84 | inactive
CCNL2 | -1.98 | active
CCNL2 | -1.25 | inactive
CCNL2 | -1.68 | active
CCNL2 | -1.81 | active
IL3RA | -1.79 | active
IL3RA | -1.67 | active
IL3RA | -2 | active
IL3RA | -1.9 | active
H4C8 | 1.72 | inactive
H4C8 | 0.12 | inactive
H4C8 | 1.16 | inactive
H4C8 | 1 | inactive
NELL1 | -0.14 | inactive
NELL1 | 0.24 | inactive
NELL1 | -0.65 | inactive
NELL1 | 0.25 | inactive
HEBP1 | 0.67 | inactive
HEBP1 | 0.71 | inactive
HEBP1 | 1.15 | inactive
HEBP1 | 1.19 | inactive
GRIK2 | 0.8 | inactive
GRIK2 | 0.41 | inactive
GRIK2 | -0.13 | inactive
GRIK2 | 2.96 | active
TREM1 | 0.54 | inactive
TREM1 | 0.39 | inactive
TREM1 | -0.95 | inactive
TREM1 | -0.57 | inactive
PRIM1 | 1.65 | inactive
PRIM1 | 1.11 | inactive
PRIM1 | 0.38 | inactive
PRIM1 | 2.46 | inactive
ITGB6 | -0.32 | inactive
ITGB6 | -0.49 | inactive
ITGB6 | -1.12 | inactive
ITGB6 | 1.04 | inactive
KAT8 | 4.38 | active
KAT8 | 0.33 | inactive
KAT8 | 0.66 | inactive
KAT8 | -1.33 | inactive
